PubChem BioAssay AID328 (DTP/NCI, 2004)
The list is a part of this screen's results and no random one: it gathers tests that were run many times, whatever their T/C, doses with no T/C, and many T/C values between a quarter and a half above the control. Further doses and runs are listed elsewhere. T/C gives the treated animals as a percentage of the vehicle group. Some entries give survivors of the animals treated and no T/C: the source holds a T/C of zero for them, seemingly a mark for toxic or unscored doses. Some survivor counts are full or nearly so, which does not show that the dose was tolerated: the source hardly ever lists a survival T/C far under the control, and the zero likely stands for such cases as well. Counts of survivors are from the toxicity check (mostly the fifth day) where no day follows; animals may have died later. Schedule codes are those of the source, read here as Q, the interval in days (D) or hours (H), X, the number of doses. Some entries were tested several times; their values stand side by side, smallest first. Where survival is the endpoint, this PubChem deposit counts one and a half times the control or more as active, and values a quarter to a half above the control carry no call in these data; other NCI protocols may use other cut-offs. Brackets with × stand for listed records that agree. Some T/C values are followed by the survivors on the day toxicity was checked, most often the fifth; where none is given, no animal had died by that day.

System: BDF1 mice, P388 leukemia ip, median survival T/C
Assay: NCI In Vivo Anticancer Drug Screen. Data for tumor model P388 Leukemia (intraperitoneal) in B6D2F1 (BDF1) mice
Conditions: T/C endpoint: median survival time, higher T/C = longer survival
How it was run: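 Antitumour effect was judged in vivo: survival in drug-treated mice, normalised to that of vehicle-dosed controls, gives the reported T/C.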

[1] = dose: 100.0 mg/kg/injection, schedule: Q01DX009 (ip), vehicle: saline
[2] = dose: 200.0 mg/kg/injection, schedule: Q01DX009 (ip), vehicle: saline
[3] = dose: 200.0 mg/kg/injection, schedule: Q04DX003 (ip), vehicle: saline
[4] = dose: 50.0 mg/kg/injection, schedule: Q01DX009 (ip), vehicle: saline
[5] = dose: 100.0 mg/kg/injection, schedule: Q01DX009 (ip), vehicle: Klucel (hydroxypropylcellulose) (HPC)
[6] = dose: 200.0 mg/kg/injection, schedule: Q01DX009 (ip), vehicle: Klucel (hydroxypropylcellulose) (HPC)
[7] = dose: 200.0 mg/kg/injection, schedule: Q04DX003 (ip), vehicle: other
[8] = dose: 400.0 mg/kg/injection, schedule: Q04DX003 (ip), vehicle: other
[9] = dose: 200.0 mg/kg/injection, schedule: Q04DX003 (ip), vehicle: Klucel (hydroxypropylcellulose) (HPC)

COc1cc2ccc3cc[n+](C)cc3c2cc1OC
survivor count [1]: 5 of 6
survivor count [2]: 3 of 6
survivor count [3]: 5 of 6
survivor count (dose: 400.0 mg/kg/injection, schedule: Q04DX003 (ip), vehicle: saline): 2 of 6

CCC12C=CCN3CCC4(c5cc(C(c6ccc(OC)cc6)c6cc7ccccc7[nH]6)c(OC)cc5N(C)C4C(O)(CO)C1O)C32 (stereo not drawn)
survivor count (dose: 25.0 mg/kg/injection, schedule: Q01DX009 (ip), vehicle: saline): 6 of 6
survivor count [4]: 6 of 6
survivor count [1]: 2 of 6

ClC(Cl)(Cl)C(N1CCN(c2ccccc2)CC1)N1CCN(c2ccccc2)CC1
T/C (dose: 400.0 mg/kg/injection, schedule: Q01DX009 (ip), vehicle: saline with Tween-80): 137 % of control

OC(CBr)C(O)C(O)C(O)CBr (stereo not drawn)
survivor count [5]: 10 of 10
T/C [6]: 130 % of control [9 of 10 alive]
T/C (dose: 250.0 mg/kg/injection, schedule: Q01DX001 (ip), vehicle: carboxymethylcellulose (CMC)): 125 % of control
T/C (dose: 500.0 mg/kg/injection, schedule: Q01DX001 (ip), vehicle: carboxymethylcellulose (CMC)): 130 % of control
survivor count (dose: 500.0 mg/kg/injection, schedule: Q01DX010 (ip), vehicle: carboxymethylcellulose (CMC)): 6 of 6
survivor count (dose: 500.0 mg/kg/injection, schedule: Q01DX010 (ip), vehicle: saline): 6 of 6
survivor count (dose: 1000.0 mg/kg/injection, schedule: Q01DX010 (ip), vehicle: carboxymethylcellulose (CMC)): 5 of 6

Cc1ccc(NC(=O)N(CCCl)N=O)cc1NC(=O)N(CCCl)N=O
T/C (dose: 12.5 mg/kg/injection, schedule: Q01DX009 (ip), vehicle: other): 139 % of control
T/C (dose: 12.5 mg/kg/injection, schedule: Q04DX003 (ip), vehicle: other): 144 % of control
survivor count (dose: 25.0 mg/kg/injection, schedule: Q01DX009 (ip), vehicle: other): 5 of 6
survivor count (dose: 100.0 mg/kg/injection, schedule: Q04DX003 (ip), vehicle: other): 6 of 6
survivor count [7]: 1 of 6
survivor count [8]: 0 of 6

CO[C@@H]1C=C[C@@]23c4cc5c(cc4CN(C[C@@H]2O)[C@H]3C1)OCO5
survivor count (dose: 75.0 mg/kg/injection, schedule: Q01DX010 (ip), vehicle: saline): 0 of 6

Nc1cc(OCc2ccccc2)cc(OCc2ccccc2)c1
survivor count (dose: 200.0 mg/kg/injection, schedule: Q01DX009 (ip), vehicle: water): 0 of 6 and 3 of 6
survivor count (dose: 400.0 mg/kg/injection, schedule: Q04DX003 (ip), vehicle: water): 2 of 6 and 4 of 6

O=C(CC(O)(C(F)(F)F)C(F)(F)F)c1ccc(F)cc1
T/C [7]: 130 % of control
survivor count [8]: 6 of 6

[NH-]CC(=O)[N-]CC(=O)O.[NH-]CC(=O)[N-]CC(=O)O.[Ni]
survivor count (dose: 100.0 mg/kg/injection, schedule: Q04DX003 (ip), vehicle: saline): 1 of 6
survivor count [3]: 0 of 6

BrCc1ccc(CBr)c(Br)c1
survivor count (dose: 50.0 mg/kg/injection, schedule: Q04DX003 (ip), vehicle: Klucel (hydroxypropylcellulose) (HPC)): 5 of 6
survivor count (dose: 100.0 mg/kg/injection, schedule: Q04DX003 (ip), vehicle: Klucel (hydroxypropylcellulose) (HPC)): 0 of 6
survivor count [9]: 0 of 6

NC(CSC(c1ccccc1)(c1ccccc1)c1ccccc1)C(=O)O (stereo not drawn)
T/C (dose: 4.6 mg/kg/injection, schedule: Q01DX009 (ip), vehicle: Klucel (hydroxypropylcellulose) (HPC)): 127 % of control
T/C (dose: 7.0 mg/kg/injection, schedule: Q01DX009 (ip), vehicle: Klucel (hydroxypropylcellulose) (HPC)): 145 % of control
T/C (dose: 11.0 mg/kg/injection, schedule: Q04DX003 (ip), vehicle: Klucel (hydroxypropylcellulose) (HPC)): 131 % of control
T/C (dose: 16.0 mg/kg/injection, schedule: Q04DX003 (ip), vehicle: Klucel (hydroxypropylcellulose) (HPC)): 127 % of control
survivor count (dose: 66.7 mg/kg/injection, schedule: Q01DX009 (ip), vehicle: other): 8 of 8
survivor count [5]: 6 of 6
survivor count (dose: 150.0 mg/kg/injection, schedule: Q04DX003 (ip), vehicle: saline): 3 of 6

C[N+](C)(C)CCCSC1=NCCN1
survivor count [4]: 0 of 6

CCc1nnc2ncccn12
T/C [1]: 129 % of control
T/C [2]: 127 % of control
survivor count (dose: 400.0 mg/kg/injection, schedule: Q01DX009 (ip), vehicle: saline): 1 of 6 and 2 of 6

O=C(/C=C/c1ccncc1)c1cccc2ccccc12
survivor count [2]: 4 of 6

CCO/C=C1\SC(=S)N(c2ccccc2C)C1=O
T/C (dose: 29.3 mg/kg/injection, schedule: Q04DX003 (ip), vehicle: saline with Tween-80): 127 % of control
T/C (dose: 44.0 mg/kg/injection, schedule: Q04DX003 (ip), vehicle: saline with Tween-80): 127 % of control
survivor count (dose: 50.0 mg/kg/injection, schedule: Q01DX009 (ip), vehicle: Klucel (hydroxypropylcellulose) (HPC)): 5 of 6
T/C (dose: 66.0 mg/kg/injection, schedule: Q04DX003 (ip), vehicle: saline with Tween-80): 136 % of control
T/C (dose: 88.0 mg/kg/injection, schedule: Q01DX009 (ip), vehicle: Klucel (hydroxypropylcellulose) (HPC)): 144 % of control
T/C (dose: 88.0 mg/kg/injection, schedule: Q04DX003 (ip), vehicle: saline with Tween-80): 125 % of control
T/C [5]: 128 % of control
T/C (dose: 100.0 mg/kg/injection, schedule: Q04DX003 (ip), vehicle: saline with Tween-80): 136 % of control (2×)
survivor count (dose: 132.0 mg/kg/injection, schedule: Q01DX009 (ip), vehicle: Klucel (hydroxypropylcellulose) (HPC)): 5 of 6
T/C (dose: 132.0 mg/kg/injection, schedule: Q04DX003 (ip), vehicle: saline with Tween-80): 140 % of control (2×)
survivor count [6]: 2 of 6
T/C (dose: 200.0 mg/kg/injection, schedule: Q04DX003 (ip), vehicle: saline with Tween-80): 130, 131, 140 % of control [5 of 6 alive]
survivor count (dose: 300.0 mg/kg/injection, schedule: Q01DX009 (ip), vehicle: Klucel (hydroxypropylcellulose) (HPC)): 3 of 6
T/C (dose: 300.0 mg/kg/injection, schedule: Q04DX003 (ip), vehicle: saline with Tween-80): 140 % of control
survivor count (dose: 400.0 mg/kg/injection, schedule: Q04DX003 (ip), vehicle: saline with Tween-80): 5 of 6

O=C(COc1cc(Cl)c(Cl)cc1Cl)OCCOc1cc(Cl)c(Cl)cc1Cl
survivor count (dose: 6.25 mg/kg/injection, schedule: Q01DX009 (ip), vehicle: saline with Tween-80): 6 of 6
survivor count (dose: 12.5 mg/kg/injection, schedule: Q01DX009 (ip), vehicle: saline with Tween-80): 6 of 6
survivor count (dose: 25.0 mg/kg/injection, schedule: Q04DX003 (ip), vehicle: saline with Tween-80): 6 of 6
survivor count (dose: 50.0 mg/kg/injection, schedule: Q04DX003 (ip), vehicle: saline with Tween-80): 6 of 6

CN(C)CCC(=O)c1ccccc1
survivor count [4]: 0 of 6
survivor count [1]: 0 of 6

O=c1[nH]c2cc(Cl)ccc2c(CCl)c1Cl
survivor count (dose: 150.0 mg/kg/injection, schedule: Q01DX009 (ip), vehicle: saline with Tween-80): 6 of 6
survivor count (dose: 225.0 mg/kg/injection, schedule: Q01DX009 (ip), vehicle: saline with Tween-80): 4 of 6
survivor count (dose: 335.0 mg/kg/injection, schedule: Q01DX009 (ip), vehicle: saline with Tween-80): 0 of 6

CCCCCCCC(=O)NCCCC
survivor count [9]: 6 of 6
